US4399066 (dated 1983)

Test: general procedure: solution-phase peptide synthesis; OSu active ester

Substance | step yield (coupling step) [%] | step yield (late stage modification step) [%]
D-Lac(OAc)-L-Ala-γ-D-Glu(α-OBzl)-(L)-Boc-(D)-mesoDAP-(L)-L-Ser-(D)-NHNHBoc | 47.4 | 
D-Lac(OAc)-L-Ala-γ-D-Glu(α-OBzl)-(L)-mesoDAP-(L)-L-Ser |  | 71.4
